These are yes or no findings as the source states them, for the method shown. Some results given as binding are weak or reduced against the parent protein; the word gives no strength.
How the values were obtained:
[1] = molecular target: T1, human CD93/Fc fusion protein (human, UniProt Q9NPY3 22-580, limits assumed); test: ELISA on coated human CD93/Fc, HRP anti-human kappa secondary, OD490
T1 construct: It was biotinylated or DyLight 650-conjugated for staining; also called CD93-Fc chimera protein; CD93-Fc biotinylated protein; not shown: Fc part
T1 sequence (looked up): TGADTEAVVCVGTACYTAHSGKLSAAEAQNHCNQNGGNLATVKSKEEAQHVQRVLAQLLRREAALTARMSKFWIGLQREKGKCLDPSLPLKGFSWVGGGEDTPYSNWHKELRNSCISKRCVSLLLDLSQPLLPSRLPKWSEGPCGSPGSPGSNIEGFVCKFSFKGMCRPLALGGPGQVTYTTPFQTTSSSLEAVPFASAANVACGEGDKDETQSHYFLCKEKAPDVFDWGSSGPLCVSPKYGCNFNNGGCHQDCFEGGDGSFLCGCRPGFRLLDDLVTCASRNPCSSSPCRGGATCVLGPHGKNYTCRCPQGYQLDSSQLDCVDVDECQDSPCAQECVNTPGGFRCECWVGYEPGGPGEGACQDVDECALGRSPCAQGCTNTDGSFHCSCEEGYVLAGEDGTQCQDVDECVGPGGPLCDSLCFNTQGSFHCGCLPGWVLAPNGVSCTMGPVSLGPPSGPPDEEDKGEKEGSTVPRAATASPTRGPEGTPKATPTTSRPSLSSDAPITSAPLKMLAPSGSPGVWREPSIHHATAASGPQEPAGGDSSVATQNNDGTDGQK
Protocol: FIGS. 2A-2O are sets of graphs illustrating that CD93-CAR T cells exert anti-leukemic effects against AML in vitro. FIG. 2A is a bar chart showing that humanized (“HuF11-G1” and “HuF11-G1 TM”) and chimeric F11 (“ChF11-G1”) monoclonal antibodies bind human CD93 with similar affinity. Human CD93/Fc fusion protein was coated in a 96-well plate and different concentrations of the antibodies as indicated were added. HRP-conjugated anti-human Kappa antibody was used as a secondary antibody. CD93 binding activity was measured by reading signals at OD490 […]. FIG. 2B is a cartoon showing the structure of CD93-28z and CD93-BBz CARs. […] Cells were fed with new media every 2-3 days, analyzed for transduction efficiency and phenotype on day 10-11, and processed for downstream experiments. FIG. 2D is a bar graph showing comparing transduction efficiency for each of aCAR molecule and control (“Mock”), measured by flow cytometry on day 10 after T cell activation. […] FIG. 2F is a set of graphs comparing expression levels of markers of T cell activation/exhaustion, including LAG-3, PD-1, TIM-3, and CD39, measured by flow cytometry on day 10 after T cell activation, prior to downstream experiments. […] FIG. 2G is a graph showing CD93 expression on AML cell lines, measured by flow cytometry after staining with biotinylated F11 antibody followed by streptavidin-APC. […]

[2] = molecular target: T1, human CD93/Fc fusion protein; test: ELISA, human CD93/Fc coated on plate, HRP anti-human Kappa secondary, OD490
[3] = molecular target: T1, human CD93/Fc fusion protein; test: ELISA, human CD93/Fc coated on plate

Measured: binding

B1: humanized F11 monoclonal antibody (HuF11-G1) (antibody, V domains shown)
VH: QVQLVQSGAEVKKPGASVKVSCKASGYTFTDYHMDWVKQAPGQGLEWIGDIDPYNGDTVFNQKFKGKATMTRDTSISTAYMELSRLRSDDTAVYYCTRGGDYWGQGTLVTVSS
VL: DIVMTQTPLSLSVTPGQPASISCRSSQTLVHSNGNTYLHWYLQKPGQPPQLLIYKVSNRFSGVPDRFSGSGSGTDFTLKISRVEAEDVGVYFCSQSTHVPFTFGQGTKLEIK
notes: also called humanized F11 antibody
binds: [1] | [2] | [3]

B2: humanized F11 monoclonal antibody (HuF11-G1 TM) (antibody, V domains shown)
VH: B1 VH
VL: B1 VL
notes: as for B1
binds: [1] | [2] | [3]

From US20240390497A1 (Stanford University, published 2024)
